At least one result comes from cells or an extract, where the contact may be indirect. For some of these results: Negatives hold for the conditions tested. For some of these results: Tags and fusion partners may be left off the protein sequences shown. For some of these results: For at least one entry, the source does not settle the construct or the ends of the probe.
Key:
[1] = test system: soluble alkaline phosphatase heterodimer in LoVo culture medium (Homo sapiens); assay: pull-down; conditions: 10 nM BG2-Bio, 4 C, phosphatase activity readout, protein in an extract, protein details: endogenous, secreted, label: 5'-FAM or 5'-biotin, single-stranded DNA
[2] = test system: alkaline phosphatase heterodimer IAP/GCAP co-expressed in PC-3 cells (Homo sapiens); assay: flow cytometry; conditions: protein on the cell surface; label: 5'-FAM or 5'-biotin; single-stranded DNA
[3] = test system: alkaline phosphatase heterodimer IAP/PALP co-expressed in PC-3 cells (Homo sapiens); assay: flow cytometry; conditions: protein on the cell surface; protein details: pCMV-myc vectors, transfected PC-3; label: 5'-FAM or 5'-biotin; single-stranded DNA
[4] = molecular target: germ cell alkaline phosphatase GCAP (ALPPL2) expressed alone (Homo sapiens) (UniProt P10696); assay: flow cytometry; conditions: protein on the cell surface; protein details: pcDNA3.1(-) vector, transfected PC-3; label: 5'-FAM or 5'-biotin; single-stranded DNA
[5] = molecular target: T1, intestinal alkaline phosphatase IAP (ALPI) expressed alone (Homo sapiens) (UniProt P09923); assay: flow cytometry; conditions: protein on the cell surface; protein details: pCMV-myc vector, transfected PC-3; label: 5'-FAM or 5'-biotin; single-stranded DNA
T1 sequence (looked up, limits assumed): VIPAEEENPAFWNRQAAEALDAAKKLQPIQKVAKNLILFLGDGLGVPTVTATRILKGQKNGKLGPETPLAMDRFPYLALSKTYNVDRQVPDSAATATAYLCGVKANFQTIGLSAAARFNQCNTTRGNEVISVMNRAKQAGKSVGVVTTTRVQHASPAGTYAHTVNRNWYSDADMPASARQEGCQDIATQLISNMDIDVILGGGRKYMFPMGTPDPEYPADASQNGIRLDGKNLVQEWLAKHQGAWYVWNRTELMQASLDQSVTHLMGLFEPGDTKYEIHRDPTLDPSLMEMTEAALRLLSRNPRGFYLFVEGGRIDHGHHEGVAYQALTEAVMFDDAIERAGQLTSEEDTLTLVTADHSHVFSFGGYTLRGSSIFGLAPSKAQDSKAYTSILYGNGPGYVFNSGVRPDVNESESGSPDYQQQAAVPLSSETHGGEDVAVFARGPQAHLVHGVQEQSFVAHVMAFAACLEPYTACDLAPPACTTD

Chains of the proteins cited; added tags and fusions are not shown. A line that says so, or that is headed by a name, gives the form on record, which may keep a tag or linker. Residues count along the entry.
UniProt P10696, 20-503: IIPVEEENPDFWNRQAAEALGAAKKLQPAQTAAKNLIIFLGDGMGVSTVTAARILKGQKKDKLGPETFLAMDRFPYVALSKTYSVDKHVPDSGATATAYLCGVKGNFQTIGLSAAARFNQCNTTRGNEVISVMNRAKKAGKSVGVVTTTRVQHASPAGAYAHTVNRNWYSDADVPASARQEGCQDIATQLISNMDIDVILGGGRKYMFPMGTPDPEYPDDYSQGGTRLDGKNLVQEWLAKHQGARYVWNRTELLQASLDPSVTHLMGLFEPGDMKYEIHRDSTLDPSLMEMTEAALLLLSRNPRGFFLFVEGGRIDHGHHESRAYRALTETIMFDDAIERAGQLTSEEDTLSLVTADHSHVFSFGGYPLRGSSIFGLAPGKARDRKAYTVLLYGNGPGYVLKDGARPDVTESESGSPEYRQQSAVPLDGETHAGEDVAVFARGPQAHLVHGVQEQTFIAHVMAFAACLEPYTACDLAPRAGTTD
UniProt P05187, 23-506: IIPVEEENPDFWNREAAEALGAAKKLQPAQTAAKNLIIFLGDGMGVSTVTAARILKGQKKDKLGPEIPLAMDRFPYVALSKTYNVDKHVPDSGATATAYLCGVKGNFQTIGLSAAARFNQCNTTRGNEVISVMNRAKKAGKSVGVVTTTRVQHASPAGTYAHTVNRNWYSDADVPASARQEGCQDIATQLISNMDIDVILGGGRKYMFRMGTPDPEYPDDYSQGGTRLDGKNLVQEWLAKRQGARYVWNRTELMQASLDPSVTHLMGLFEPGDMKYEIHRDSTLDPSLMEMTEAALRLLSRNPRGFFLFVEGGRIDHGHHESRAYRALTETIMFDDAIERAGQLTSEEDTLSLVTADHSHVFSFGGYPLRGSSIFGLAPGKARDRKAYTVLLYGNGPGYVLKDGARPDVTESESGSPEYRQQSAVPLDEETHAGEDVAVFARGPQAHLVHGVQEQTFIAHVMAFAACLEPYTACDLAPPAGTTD
soluble alkaline phosphatase heterodimer in LoVo culture medium (Homo sapiens), one chain, as listed by the source: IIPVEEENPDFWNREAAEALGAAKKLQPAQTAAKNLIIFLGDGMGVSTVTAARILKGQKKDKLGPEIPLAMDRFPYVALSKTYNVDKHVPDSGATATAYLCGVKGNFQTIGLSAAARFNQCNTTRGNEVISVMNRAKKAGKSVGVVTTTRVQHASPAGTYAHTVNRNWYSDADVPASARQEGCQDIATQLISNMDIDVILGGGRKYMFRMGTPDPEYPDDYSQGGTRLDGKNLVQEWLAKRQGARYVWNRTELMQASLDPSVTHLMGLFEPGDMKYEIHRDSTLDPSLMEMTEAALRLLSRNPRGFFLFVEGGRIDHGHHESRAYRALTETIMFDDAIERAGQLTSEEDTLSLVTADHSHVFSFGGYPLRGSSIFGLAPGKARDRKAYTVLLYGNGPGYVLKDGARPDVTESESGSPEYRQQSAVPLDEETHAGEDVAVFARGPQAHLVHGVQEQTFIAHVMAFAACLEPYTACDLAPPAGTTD
alkaline phosphatase heterodimer IAP/GCAP co-expressed in PC-3 cells (Homo sapiens), one chain, as listed by the source: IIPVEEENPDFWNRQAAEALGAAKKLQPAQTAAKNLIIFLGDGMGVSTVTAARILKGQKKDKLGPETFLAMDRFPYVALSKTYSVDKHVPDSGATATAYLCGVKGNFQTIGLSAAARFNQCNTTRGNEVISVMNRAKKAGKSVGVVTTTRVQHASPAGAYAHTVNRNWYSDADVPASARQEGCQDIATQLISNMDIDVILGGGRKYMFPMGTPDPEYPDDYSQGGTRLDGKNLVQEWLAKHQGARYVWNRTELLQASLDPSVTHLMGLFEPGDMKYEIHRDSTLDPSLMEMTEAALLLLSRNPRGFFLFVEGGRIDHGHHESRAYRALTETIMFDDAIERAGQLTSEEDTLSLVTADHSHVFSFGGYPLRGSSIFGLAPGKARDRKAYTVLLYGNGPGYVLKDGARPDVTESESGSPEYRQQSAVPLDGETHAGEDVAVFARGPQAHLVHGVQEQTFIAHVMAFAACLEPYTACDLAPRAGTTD

[6] = molecular target: placental alkaline phosphatase PALP (ALPP) expressed alone (Homo sapiens) (UniProt P05187); assay: flow cytometry; conditions: protein on the cell surface; protein details: pCMV-myc vector, transfected PC-3; label: 5'-FAM or 5'-biotin; single-stranded DNA
[7] = test system: alkaline phosphatase heterodimer IAP/PALP (ALPI/ALPP) on LoVo cells (Homo sapiens); assay: competition with a labelled probe; conditions: 4 uM competitor vs 100 nM BG2-FAM on LoVo cells, on ice; protein on the cell surface; protein details: endogenous, LoVo colon cancer cells; single-stranded DNA; variant of BG2

Sequence | binding result [1] | binding result [2] | binding result [3] | binding result [4] | binding result [5] | binding result [6] | binding result [7]
CAAGGAATAGGGGTCGGTGTGGGTGGTTATGATTGGCTTCCTTG [BG2] | binds | binds | binds | no binding | no binding | no binding | 
TAGGGGTCGGTGTGGGTGGTTATGATTGGC [BG2 loop region sequence 7] |  |  |  |  |  |  | binds
